The record followed here is patent US20160215013.

For the series, the target named is T1, KOD exonuclease-minus DNA polymerase (UniProt P77933).
T1 sequence (looked up, limits assumed): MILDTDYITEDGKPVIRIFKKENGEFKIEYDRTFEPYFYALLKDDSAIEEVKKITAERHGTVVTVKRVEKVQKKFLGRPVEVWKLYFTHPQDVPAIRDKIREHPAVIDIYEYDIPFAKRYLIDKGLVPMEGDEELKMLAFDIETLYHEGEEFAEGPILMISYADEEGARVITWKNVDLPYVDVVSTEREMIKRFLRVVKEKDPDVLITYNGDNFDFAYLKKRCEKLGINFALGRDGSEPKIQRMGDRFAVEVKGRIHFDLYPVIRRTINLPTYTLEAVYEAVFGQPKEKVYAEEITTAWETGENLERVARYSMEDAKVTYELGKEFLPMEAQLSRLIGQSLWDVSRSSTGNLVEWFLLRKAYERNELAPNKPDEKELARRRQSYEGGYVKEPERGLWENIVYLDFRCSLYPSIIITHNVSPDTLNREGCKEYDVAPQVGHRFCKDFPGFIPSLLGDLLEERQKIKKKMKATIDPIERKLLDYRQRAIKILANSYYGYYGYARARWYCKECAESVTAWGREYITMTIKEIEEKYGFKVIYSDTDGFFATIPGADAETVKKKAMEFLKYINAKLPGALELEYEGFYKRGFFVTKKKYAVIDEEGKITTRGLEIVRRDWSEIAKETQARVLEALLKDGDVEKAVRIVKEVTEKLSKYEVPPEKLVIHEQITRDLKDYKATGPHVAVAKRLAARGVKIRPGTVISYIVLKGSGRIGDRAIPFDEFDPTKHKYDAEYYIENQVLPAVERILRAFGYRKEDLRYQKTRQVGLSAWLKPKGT
Kind of series: activity assay. The note with it: primer extension with dCTP; 119% with 9a (BndC), 113% with 9b (NapdC), 120% with 9c (PPdC), 5% without dC; Mg2+, pH 7.8, 65 C 1 h; purified recombinant protein; protein details: EMD Novagen; label: 32P on primer.

For at least one entry, the source does not settle the construct or the ends of the probe. Tags and fusion partners may be left off the protein sequences shown.

Turning to “TTTTTTTTCTTCTTCTCCTTTCTCTTCCCAAAATCACACGGACCCAGGGCATTCTAGATATGGTTTACGCTCAAGCGAACTTGCCGTCCTGAGTGTAAAGAGGGAAAGAGGGCAGGGTGTGGCATATATAT / ATATATATGCCACACCCTGCCCTC [primer extension template/primer]”, the activity on this sequence (% full length) is 100.
